{"sequences": {"note": "Protein sequences, listed by entry. Tags and fused reporters are not part of them. Lines headed by an entry give the natural chain unless they say otherwise; changes in a name come on top.", "UniProt Q9NRV9": "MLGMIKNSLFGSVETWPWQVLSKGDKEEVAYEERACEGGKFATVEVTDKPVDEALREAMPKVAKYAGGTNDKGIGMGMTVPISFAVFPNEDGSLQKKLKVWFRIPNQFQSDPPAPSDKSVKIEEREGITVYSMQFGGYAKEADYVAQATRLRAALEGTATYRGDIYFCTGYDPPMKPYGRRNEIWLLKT", "UniProt Q9UKN8": "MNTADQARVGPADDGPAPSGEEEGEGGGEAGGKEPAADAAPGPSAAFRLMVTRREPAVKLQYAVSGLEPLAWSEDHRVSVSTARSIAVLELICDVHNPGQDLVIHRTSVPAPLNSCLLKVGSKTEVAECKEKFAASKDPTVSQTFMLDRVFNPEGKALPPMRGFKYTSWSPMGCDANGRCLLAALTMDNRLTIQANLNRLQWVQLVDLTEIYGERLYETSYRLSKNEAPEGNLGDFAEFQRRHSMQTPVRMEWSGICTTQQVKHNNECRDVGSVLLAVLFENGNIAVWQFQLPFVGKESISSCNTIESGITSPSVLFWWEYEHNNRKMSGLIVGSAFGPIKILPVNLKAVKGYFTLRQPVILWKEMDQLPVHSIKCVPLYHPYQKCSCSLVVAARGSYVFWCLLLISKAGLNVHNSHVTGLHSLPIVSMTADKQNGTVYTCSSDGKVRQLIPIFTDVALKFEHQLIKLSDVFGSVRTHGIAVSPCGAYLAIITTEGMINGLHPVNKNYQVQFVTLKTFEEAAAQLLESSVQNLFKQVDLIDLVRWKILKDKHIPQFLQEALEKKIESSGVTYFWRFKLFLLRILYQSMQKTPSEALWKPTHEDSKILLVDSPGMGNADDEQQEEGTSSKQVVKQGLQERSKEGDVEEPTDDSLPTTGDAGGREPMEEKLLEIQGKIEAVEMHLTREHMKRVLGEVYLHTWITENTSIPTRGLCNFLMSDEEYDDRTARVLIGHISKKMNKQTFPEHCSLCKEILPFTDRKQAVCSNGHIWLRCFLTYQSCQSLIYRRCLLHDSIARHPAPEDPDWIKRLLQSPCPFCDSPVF", "UniProt P35269, whole entry": "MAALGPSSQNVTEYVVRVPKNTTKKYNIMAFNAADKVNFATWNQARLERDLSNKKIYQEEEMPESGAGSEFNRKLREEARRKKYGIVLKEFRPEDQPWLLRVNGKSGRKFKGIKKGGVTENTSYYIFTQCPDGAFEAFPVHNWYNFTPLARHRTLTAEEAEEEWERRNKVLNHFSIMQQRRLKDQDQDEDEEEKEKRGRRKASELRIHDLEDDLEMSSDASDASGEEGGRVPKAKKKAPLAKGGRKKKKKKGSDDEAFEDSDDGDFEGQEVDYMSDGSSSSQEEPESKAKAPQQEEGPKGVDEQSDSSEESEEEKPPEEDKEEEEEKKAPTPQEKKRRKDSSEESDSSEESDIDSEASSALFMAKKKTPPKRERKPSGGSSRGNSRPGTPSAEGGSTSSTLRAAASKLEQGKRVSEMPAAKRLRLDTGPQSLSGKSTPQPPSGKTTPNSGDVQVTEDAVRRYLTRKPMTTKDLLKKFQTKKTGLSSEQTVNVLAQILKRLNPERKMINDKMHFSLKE", "UniProt P11142, whole entry, looked up": "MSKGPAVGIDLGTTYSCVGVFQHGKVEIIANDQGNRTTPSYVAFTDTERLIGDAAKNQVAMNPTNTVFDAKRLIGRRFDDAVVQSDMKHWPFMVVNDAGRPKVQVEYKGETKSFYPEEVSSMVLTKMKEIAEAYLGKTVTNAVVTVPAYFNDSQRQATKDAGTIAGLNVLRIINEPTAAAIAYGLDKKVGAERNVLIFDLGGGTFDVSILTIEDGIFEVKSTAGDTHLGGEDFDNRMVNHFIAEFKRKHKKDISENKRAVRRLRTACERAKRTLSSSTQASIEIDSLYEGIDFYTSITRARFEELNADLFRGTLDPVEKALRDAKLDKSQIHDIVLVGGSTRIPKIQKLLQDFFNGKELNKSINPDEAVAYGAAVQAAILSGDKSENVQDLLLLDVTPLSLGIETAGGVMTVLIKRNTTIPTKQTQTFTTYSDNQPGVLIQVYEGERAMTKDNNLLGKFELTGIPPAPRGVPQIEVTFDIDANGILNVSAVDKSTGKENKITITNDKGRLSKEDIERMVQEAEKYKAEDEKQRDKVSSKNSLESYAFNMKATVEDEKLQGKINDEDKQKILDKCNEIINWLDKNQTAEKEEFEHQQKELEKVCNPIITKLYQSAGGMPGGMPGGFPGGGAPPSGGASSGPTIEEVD", "UniProt P14317": "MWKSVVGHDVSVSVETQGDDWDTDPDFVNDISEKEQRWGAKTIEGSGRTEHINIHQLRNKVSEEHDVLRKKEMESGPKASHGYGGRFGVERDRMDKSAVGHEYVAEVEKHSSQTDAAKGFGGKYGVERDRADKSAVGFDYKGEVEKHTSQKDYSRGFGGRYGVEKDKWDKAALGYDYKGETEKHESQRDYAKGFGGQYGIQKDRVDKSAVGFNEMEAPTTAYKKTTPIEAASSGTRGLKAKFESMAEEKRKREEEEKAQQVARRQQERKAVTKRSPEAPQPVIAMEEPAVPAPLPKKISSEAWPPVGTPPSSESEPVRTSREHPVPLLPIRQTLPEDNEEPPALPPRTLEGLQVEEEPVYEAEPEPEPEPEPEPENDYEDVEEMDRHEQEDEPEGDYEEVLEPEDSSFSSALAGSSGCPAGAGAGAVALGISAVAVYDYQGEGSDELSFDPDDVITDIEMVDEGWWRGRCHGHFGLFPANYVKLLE", "UniProt P46976": "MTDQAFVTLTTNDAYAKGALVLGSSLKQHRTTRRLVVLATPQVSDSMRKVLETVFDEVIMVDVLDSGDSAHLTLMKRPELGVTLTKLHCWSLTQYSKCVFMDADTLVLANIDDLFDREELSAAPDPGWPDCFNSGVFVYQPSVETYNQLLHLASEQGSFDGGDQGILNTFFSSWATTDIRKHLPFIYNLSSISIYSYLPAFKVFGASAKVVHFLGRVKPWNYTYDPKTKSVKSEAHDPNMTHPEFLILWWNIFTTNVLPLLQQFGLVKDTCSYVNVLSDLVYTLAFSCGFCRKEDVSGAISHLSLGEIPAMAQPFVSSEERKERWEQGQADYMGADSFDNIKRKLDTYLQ", "UniProt Q86W33": "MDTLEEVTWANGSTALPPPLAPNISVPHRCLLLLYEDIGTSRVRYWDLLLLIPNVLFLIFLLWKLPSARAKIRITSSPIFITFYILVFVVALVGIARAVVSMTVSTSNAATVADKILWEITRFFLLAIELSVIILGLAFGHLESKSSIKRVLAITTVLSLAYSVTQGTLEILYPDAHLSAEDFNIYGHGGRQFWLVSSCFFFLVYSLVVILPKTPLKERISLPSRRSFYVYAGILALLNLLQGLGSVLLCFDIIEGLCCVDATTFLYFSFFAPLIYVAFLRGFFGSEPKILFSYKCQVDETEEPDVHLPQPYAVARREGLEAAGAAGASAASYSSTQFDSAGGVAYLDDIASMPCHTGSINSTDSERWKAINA", "UniProt Q13151": "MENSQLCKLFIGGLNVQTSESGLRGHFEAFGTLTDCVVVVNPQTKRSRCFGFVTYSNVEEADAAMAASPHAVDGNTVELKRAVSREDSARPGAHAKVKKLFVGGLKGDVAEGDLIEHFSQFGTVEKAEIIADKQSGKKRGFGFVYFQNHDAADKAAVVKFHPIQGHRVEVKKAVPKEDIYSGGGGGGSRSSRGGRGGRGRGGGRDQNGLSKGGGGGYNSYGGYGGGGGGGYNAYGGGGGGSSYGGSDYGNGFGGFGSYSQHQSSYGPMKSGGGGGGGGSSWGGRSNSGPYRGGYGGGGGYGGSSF", "UniProt Q5VW38": "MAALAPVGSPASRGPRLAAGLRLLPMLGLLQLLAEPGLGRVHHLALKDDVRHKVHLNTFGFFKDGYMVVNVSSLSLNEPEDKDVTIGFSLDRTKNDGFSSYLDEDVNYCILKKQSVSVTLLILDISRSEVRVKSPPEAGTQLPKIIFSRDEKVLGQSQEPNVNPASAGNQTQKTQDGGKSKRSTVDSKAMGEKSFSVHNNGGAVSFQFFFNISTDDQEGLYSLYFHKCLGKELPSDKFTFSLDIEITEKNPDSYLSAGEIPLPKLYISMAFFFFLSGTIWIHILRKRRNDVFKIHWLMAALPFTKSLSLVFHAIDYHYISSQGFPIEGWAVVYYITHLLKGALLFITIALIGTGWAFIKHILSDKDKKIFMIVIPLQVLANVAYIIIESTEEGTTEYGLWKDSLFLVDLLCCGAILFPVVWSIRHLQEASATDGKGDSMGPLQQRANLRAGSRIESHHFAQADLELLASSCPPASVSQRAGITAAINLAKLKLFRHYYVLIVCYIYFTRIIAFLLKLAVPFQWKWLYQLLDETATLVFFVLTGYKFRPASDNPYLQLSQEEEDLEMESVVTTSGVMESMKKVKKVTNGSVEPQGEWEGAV", "UniProt O75146": "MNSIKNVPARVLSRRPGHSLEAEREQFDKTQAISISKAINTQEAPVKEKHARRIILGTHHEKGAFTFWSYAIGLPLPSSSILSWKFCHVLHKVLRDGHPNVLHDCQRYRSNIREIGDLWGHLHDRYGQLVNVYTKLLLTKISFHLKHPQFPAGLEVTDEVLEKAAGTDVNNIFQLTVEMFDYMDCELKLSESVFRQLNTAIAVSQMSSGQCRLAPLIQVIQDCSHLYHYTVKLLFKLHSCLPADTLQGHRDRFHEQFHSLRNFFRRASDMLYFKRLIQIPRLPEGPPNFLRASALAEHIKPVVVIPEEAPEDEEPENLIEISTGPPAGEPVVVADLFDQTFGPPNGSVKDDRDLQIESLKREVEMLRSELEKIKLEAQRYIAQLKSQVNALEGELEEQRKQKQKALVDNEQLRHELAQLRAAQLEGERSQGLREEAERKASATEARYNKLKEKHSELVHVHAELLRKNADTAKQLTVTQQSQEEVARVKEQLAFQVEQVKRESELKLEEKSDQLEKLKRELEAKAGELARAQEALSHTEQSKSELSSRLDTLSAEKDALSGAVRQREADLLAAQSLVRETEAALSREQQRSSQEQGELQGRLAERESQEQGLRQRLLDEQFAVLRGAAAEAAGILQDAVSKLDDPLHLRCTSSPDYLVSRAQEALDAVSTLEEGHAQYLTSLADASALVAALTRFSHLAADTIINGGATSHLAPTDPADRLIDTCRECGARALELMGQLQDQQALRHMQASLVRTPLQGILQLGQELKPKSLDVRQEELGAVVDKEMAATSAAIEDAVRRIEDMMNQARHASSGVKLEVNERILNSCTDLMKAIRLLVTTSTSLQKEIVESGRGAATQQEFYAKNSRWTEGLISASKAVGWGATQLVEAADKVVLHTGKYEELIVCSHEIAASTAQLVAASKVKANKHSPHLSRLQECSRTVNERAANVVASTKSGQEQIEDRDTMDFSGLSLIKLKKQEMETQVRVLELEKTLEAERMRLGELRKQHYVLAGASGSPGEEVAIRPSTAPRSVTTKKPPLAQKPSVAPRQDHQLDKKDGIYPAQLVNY", "UniProt Q9BW72": "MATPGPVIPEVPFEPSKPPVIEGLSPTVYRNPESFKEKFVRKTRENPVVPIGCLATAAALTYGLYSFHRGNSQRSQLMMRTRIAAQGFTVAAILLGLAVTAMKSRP", "UniProt P52597": "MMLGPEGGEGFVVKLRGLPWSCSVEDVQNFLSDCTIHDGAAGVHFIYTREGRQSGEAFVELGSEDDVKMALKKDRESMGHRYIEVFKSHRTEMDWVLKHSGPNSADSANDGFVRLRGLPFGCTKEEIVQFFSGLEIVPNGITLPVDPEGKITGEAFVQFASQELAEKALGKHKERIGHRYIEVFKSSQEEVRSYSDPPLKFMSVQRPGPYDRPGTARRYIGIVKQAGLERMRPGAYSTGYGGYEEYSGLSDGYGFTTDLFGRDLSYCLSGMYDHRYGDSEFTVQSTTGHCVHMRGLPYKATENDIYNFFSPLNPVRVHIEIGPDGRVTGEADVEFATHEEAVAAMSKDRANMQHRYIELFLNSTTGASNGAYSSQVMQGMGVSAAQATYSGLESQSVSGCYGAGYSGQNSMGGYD", "UniProt Q9NQG7": "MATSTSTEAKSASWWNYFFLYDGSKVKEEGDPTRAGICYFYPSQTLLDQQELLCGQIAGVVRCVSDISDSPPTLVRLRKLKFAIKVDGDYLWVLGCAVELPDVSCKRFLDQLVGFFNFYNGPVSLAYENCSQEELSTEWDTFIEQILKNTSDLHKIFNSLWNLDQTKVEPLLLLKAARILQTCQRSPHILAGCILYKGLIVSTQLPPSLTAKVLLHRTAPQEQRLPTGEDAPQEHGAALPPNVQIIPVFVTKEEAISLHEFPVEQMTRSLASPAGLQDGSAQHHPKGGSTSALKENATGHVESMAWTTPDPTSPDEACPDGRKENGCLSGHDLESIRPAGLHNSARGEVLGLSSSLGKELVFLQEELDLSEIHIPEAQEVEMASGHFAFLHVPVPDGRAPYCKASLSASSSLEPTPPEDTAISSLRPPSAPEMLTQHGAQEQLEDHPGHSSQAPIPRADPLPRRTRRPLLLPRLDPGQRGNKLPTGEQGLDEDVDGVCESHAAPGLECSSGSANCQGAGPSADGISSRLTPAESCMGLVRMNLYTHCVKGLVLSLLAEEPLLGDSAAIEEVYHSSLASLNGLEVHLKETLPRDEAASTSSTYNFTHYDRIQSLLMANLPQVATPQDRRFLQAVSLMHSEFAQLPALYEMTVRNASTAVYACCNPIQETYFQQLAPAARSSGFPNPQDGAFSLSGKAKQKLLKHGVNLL"}, "source": "the supplement of paper PMC7666118", "note": "Some of the results follow."}
{"compound": "COc1ccc(Cn2ccc3cc(C)c(C(=O)NO)cc32)cc1", "experiment": "dose-dependent thermal stabilisation call (2D-TPP, DLPTP, 10% FDR) (binary (1 = stabilised)); higher = stabilised by the compound", "conditions": "system: HL-60 intact cells; concentration range 0.04-10 µM", "method": "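2D thermal proteome profiling in intact HL-60 cells treated with BRD-3811 (0, 0.04, 0.29, 2, 10 uM) for 90 min at 37 C, then heated 3 min at one of 12 temperatures (42-63.9 C). Soluble protein was quantified by TMT10 MS. The value is the DLPTP call of the paper: dose-dependent thermal stabilisation over all temperatures at 10% FDR (F-test of a dose-response against a flat model); one experiment, one call per tested protein.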"}
{"target": "HNRPLL (UniProt Q8WVV9)", "dose-dependent thermal stabilisation call": "inactive: 0"}
{"target": "HDAC2 (UniProt Q92769)", "dose-dependent thermal stabilisation call": "inactive: 0"}
{"target": "HEBP1 (UniProt Q9NRV9)", "dose-dependent thermal stabilisation call": "inactive: 0"}
{"target": "GSPT1 (UniProt P15170)", "dose-dependent thermal stabilisation call": "inactive: 0"}
{"target": "GPC1 (UniProt P35052)", "dose-dependent thermal stabilisation call": "inactive: 0"}
{"target": "GRWD1 (UniProt Q9BQ67)", "dose-dependent thermal stabilisation call": "inactive: 0"}
{"target": "GOSR1 (UniProt O95249)", "dose-dependent thermal stabilisation call": "inactive: 0"}
{"target": "HDAC7 (UniProt Q8WUI4)", "dose-dependent thermal stabilisation call": "inactive: 0"}
{"target": "GPD1L (UniProt Q8N335)", "dose-dependent thermal stabilisation call": "inactive: 0"}
{"target": "GSTK1 (UniProt Q9Y2Q3)", "dose-dependent thermal stabilisation call": "inactive: 0"}
{"target": "GTF3C4 (UniProt Q9UKN8)", "dose-dependent thermal stabilisation call": "inactive: 0"}
{"target": "GTF2F1 (UniProt P35269)", "dose-dependent thermal stabilisation call": "inactive: 0"}
{"target": "HSPA8 (UniProt P11142)", "dose-dependent thermal stabilisation call": "active: 1"}
{"target": "HCLS1 (UniProt P14317)", "dose-dependent thermal stabilisation call": "inactive: 0"}
{"target": "GYG1 (UniProt P46976)", "dose-dependent thermal stabilisation call": "inactive: 0"}
{"target": "HMBS (UniProt P08397)", "dose-dependent thermal stabilisation call": "inactive: 0"}
{"target": "GTF2A2 (UniProt P52657)", "dose-dependent thermal stabilisation call": "inactive: 0"}
{"target": "GPR175 (UniProt Q86W33)", "dose-dependent thermal stabilisation call": "inactive: 0"}
{"target": "HPRT1 (UniProt P00492)", "dose-dependent thermal stabilisation call": "inactive: 0"}
{"target": "HEATR7A (UniProt Q8NDA8)", "dose-dependent thermal stabilisation call": "inactive: 0"}
{"target": "HEATR6 (UniProt Q6AI08)", "dose-dependent thermal stabilisation call": "inactive: 0"}
{"target": "GNPNAT1 (UniProt Q96EK6)", "dose-dependent thermal stabilisation call": "inactive: 0"}
{"target": "HS1BP3 (UniProt Q53T59)", "dose-dependent thermal stabilisation call": "inactive: 0"}
{"target": "HISPPD1 (UniProt O43314)", "dose-dependent thermal stabilisation call": "inactive: 0"}
{"target": "HNRNPA2B1 (UniProt P22626)", "dose-dependent thermal stabilisation call": "inactive: 0"}
{"target": "HNRNPA0 (UniProt Q13151)", "dose-dependent thermal stabilisation call": "inactive: 0"}
{"target": "HSP90B1 (UniProt P14625)", "dose-dependent thermal stabilisation call": "inactive: 0"}
{"target": "GPR107 (UniProt Q5VW38)", "dose-dependent thermal stabilisation call": "inactive: 0"}
{"target": "HIP1R (UniProt O75146)", "dose-dependent thermal stabilisation call": "inactive: 0"}
{"target": "HNRNPL (UniProt P14866)", "dose-dependent thermal stabilisation call": "inactive: 0"}
{"target": "HACL1 (UniProt Q9UJ83)", "dose-dependent thermal stabilisation call": "inactive: 0"}
{"target": "HHEX (UniProt Q03014)", "dose-dependent thermal stabilisation call": "inactive: 0"}
{"target": "HIGD2A (UniProt Q9BW72)", "dose-dependent thermal stabilisation call": "inactive: 0"}
{"target": "HPDL (UniProt Q96IR7)", "dose-dependent thermal stabilisation call": "inactive: 0"}
{"target": "HNRNPF (UniProt P52597)", "dose-dependent thermal stabilisation call": "inactive: 0"}
{"target": "HEL308 (UniProt Q8TDG4)", "dose-dependent thermal stabilisation call": "inactive: 0"}
{"target": "GUSB (UniProt P08236)", "dose-dependent thermal stabilisation call": "inactive: 0"}
{"target": "HPS4 (UniProt Q9NQG7)", "dose-dependent thermal stabilisation call": "inactive: 0"}
{"target": "GTF3C3 (UniProt Q9Y5Q9)", "dose-dependent thermal stabilisation call": "inactive: 0"}
{"target": "GRIPAP1 (UniProt Q4V328)", "dose-dependent thermal stabilisation call": "inactive: 0"}
